The list shows a part of the results. Residues, ends and D or L forms follow the SMILES beside them. *: point of attachment. Cbz = O=C(OCc1ccccc1)*
How the values were obtained:
Assay in all cases: log2 fold change, soluble protein after heating vs DMSO (PISA); higher = thermal stabilisation; K562 cells, 10 uM, 30 min; active = over 0.2 and 3.5 SD of the protein, either way, in both replicates (recomputed)
[1] = compound: C1COCCN1CCN2C3=CC=CC=C3N=C2NC(=O)C4=CC(=CC=C4)[N+](=O)[O-] [IRAK-1-4 Inhibitor I]
Procedure, shortened: (§1)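 K562 cells at 2×10^6 cells/mL were given 10 μM compound for 30 min. Aliquots then went through 3 min of heating across 48°C-58°C, were pooled, and were extracted in PBS with 0.5% NP-40 at 4°C, and the supernatant after 21,000xg for 90 min was quantified by TMTpro 16plex LC-MS/MS with channel sums equalised. Thermal stability relative to control samples, from duplicates, is given as log2 fold change.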

Sequences of proteins named here, by UniProt entry; tags and fusion partners are left off. A change or cut given only in a name is not applied to a line headed by its entry.
UniProt Q9Y276: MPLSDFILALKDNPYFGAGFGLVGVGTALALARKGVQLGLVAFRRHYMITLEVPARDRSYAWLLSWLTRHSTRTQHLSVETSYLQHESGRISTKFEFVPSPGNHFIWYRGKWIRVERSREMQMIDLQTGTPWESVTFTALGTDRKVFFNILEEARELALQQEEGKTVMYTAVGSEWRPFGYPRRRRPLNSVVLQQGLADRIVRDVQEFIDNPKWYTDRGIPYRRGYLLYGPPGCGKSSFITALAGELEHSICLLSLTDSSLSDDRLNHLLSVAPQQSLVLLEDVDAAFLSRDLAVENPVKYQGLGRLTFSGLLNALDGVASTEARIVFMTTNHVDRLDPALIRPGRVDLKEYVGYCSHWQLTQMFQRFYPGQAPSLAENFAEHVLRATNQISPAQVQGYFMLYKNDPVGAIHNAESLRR
UniProt O15382: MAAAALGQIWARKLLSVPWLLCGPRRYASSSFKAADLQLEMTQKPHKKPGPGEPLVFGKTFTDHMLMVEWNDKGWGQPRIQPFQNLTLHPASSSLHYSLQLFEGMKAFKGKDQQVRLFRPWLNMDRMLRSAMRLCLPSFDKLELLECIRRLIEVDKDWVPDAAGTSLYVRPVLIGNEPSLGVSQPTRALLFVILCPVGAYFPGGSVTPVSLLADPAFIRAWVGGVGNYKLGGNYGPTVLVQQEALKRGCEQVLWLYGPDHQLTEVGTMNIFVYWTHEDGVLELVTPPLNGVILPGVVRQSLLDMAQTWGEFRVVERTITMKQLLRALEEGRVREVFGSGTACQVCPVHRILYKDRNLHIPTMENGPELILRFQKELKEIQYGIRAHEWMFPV
UniProt Q9NUP1: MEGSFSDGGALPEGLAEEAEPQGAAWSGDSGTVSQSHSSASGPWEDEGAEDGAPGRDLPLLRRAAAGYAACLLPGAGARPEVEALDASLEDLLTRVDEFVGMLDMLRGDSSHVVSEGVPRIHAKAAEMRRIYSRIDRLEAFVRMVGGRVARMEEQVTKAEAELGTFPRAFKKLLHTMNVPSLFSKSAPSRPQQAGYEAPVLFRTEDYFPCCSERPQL
UniProt O15155: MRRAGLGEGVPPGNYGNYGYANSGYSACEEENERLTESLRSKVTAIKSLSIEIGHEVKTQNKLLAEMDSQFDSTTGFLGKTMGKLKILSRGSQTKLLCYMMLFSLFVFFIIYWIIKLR
UniProt O95817, whole entry, looked up: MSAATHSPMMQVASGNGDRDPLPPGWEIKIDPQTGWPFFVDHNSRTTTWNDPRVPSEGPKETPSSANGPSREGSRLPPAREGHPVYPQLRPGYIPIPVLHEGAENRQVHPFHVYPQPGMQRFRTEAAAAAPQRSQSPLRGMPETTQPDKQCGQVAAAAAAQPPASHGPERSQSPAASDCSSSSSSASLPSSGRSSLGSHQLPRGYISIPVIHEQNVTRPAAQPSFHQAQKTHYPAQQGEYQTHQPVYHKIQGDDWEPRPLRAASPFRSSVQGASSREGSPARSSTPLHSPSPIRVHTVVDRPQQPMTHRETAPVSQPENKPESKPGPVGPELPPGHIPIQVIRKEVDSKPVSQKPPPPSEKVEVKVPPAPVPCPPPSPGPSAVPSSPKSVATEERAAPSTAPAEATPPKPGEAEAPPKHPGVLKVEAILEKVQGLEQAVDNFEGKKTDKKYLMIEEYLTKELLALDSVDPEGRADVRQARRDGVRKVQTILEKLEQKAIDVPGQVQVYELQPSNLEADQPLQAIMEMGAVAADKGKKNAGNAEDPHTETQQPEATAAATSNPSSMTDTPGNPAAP
UniProt Q99700, whole entry, looked up: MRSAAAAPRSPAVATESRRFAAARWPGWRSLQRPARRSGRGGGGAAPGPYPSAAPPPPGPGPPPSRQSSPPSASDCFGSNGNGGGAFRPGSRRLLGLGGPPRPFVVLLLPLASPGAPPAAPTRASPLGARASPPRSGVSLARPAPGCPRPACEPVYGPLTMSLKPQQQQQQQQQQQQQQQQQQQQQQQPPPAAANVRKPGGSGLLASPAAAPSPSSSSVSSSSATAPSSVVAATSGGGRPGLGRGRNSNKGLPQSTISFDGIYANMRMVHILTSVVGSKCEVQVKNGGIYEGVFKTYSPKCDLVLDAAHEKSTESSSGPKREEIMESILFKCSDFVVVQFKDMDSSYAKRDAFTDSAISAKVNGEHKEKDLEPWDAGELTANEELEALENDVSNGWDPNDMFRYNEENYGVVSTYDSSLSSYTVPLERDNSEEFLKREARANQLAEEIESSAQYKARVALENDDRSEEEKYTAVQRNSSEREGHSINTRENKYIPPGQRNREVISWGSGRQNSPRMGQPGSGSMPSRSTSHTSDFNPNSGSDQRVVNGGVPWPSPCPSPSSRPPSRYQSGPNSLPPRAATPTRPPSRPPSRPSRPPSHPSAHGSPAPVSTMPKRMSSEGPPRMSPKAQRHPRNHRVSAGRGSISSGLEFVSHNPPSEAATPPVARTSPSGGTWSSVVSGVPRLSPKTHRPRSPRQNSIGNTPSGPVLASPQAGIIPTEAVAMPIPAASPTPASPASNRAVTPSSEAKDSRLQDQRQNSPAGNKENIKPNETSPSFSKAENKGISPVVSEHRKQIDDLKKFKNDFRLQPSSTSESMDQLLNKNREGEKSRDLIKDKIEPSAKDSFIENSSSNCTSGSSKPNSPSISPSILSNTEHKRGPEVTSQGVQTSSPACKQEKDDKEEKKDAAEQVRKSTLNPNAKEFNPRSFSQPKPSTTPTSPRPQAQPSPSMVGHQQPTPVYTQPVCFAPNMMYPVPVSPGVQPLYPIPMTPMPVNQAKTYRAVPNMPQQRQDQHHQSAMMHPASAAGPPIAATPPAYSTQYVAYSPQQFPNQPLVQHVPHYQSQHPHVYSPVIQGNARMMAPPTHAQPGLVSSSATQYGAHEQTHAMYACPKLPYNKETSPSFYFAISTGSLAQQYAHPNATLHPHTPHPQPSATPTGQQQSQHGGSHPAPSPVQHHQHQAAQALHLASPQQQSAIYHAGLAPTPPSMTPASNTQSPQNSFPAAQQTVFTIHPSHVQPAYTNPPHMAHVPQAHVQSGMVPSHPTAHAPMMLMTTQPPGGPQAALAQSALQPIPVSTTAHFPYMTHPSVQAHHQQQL
UniProt O95861: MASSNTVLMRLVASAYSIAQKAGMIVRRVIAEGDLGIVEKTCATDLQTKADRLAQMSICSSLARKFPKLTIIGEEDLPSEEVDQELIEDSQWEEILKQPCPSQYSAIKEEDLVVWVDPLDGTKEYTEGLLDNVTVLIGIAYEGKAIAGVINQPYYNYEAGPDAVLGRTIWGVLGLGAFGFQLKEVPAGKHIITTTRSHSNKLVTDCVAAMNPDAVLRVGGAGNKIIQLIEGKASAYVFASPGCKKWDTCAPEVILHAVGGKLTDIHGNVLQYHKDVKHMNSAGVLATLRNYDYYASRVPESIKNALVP
UniProt Q14692: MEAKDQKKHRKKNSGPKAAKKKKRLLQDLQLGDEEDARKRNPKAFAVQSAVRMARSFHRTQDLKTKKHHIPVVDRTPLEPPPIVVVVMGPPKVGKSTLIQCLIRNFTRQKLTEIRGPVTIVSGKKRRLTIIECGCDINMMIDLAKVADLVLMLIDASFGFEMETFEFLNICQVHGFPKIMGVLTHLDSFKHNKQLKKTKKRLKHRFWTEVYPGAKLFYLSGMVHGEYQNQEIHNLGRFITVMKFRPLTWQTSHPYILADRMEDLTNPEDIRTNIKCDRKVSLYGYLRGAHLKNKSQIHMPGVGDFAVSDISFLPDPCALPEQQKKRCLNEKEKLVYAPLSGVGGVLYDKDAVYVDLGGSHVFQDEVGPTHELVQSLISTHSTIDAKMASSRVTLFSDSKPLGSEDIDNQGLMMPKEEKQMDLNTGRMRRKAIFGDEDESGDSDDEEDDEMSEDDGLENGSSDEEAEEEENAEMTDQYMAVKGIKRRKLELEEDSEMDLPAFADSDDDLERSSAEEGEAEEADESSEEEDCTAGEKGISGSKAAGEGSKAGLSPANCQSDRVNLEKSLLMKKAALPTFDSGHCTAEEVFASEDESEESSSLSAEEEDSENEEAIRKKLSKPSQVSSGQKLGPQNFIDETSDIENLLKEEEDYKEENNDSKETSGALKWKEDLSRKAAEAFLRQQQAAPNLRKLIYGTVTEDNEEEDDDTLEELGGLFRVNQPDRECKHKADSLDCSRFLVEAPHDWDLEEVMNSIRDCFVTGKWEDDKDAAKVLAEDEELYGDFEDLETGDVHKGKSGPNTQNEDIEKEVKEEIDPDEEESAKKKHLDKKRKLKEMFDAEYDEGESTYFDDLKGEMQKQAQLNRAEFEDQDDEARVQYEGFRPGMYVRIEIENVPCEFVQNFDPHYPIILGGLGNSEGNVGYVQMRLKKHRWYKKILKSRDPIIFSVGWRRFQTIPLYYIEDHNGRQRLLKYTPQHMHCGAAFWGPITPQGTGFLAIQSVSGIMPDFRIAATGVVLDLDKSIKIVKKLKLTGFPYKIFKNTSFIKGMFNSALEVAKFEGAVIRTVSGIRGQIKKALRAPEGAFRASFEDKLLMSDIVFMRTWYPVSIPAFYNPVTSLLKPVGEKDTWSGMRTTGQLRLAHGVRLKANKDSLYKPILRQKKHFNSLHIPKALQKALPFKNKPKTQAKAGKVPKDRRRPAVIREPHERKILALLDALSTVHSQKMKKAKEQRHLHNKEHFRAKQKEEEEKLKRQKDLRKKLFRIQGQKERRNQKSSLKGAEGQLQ
UniProt Q9NXR7, whole entry, looked up: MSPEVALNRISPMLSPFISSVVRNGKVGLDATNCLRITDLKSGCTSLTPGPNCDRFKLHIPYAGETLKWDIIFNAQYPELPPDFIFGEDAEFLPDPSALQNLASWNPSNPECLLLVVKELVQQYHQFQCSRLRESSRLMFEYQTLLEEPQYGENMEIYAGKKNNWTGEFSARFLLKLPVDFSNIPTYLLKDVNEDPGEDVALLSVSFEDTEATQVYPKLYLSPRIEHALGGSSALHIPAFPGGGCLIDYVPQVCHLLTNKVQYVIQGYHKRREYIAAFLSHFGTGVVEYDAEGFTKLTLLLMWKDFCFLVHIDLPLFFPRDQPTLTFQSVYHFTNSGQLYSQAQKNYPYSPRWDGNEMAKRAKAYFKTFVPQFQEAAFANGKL
UniProt Q8TDH9: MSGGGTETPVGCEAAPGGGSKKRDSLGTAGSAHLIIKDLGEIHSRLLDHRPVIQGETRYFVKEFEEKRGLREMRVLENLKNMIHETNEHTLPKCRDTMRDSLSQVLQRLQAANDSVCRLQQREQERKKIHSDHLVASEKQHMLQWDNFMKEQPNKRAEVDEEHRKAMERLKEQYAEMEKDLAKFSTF
UniProt Q8NBF6: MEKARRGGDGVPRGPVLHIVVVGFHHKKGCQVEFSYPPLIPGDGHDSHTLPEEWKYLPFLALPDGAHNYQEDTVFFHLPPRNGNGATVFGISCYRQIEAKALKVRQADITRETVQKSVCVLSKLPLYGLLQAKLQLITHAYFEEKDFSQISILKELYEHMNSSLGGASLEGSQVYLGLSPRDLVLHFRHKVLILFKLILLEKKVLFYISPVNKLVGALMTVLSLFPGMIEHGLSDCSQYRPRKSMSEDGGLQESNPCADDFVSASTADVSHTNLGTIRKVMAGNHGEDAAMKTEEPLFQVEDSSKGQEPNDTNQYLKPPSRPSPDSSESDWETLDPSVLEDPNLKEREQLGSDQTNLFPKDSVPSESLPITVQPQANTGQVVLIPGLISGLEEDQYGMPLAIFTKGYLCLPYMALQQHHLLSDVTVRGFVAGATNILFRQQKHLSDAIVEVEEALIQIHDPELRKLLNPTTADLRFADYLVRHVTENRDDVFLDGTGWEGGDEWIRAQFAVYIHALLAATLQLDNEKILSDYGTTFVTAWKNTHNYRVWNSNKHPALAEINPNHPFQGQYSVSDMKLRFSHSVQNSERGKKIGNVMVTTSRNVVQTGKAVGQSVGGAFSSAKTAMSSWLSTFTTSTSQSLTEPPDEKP
UniProt O14867: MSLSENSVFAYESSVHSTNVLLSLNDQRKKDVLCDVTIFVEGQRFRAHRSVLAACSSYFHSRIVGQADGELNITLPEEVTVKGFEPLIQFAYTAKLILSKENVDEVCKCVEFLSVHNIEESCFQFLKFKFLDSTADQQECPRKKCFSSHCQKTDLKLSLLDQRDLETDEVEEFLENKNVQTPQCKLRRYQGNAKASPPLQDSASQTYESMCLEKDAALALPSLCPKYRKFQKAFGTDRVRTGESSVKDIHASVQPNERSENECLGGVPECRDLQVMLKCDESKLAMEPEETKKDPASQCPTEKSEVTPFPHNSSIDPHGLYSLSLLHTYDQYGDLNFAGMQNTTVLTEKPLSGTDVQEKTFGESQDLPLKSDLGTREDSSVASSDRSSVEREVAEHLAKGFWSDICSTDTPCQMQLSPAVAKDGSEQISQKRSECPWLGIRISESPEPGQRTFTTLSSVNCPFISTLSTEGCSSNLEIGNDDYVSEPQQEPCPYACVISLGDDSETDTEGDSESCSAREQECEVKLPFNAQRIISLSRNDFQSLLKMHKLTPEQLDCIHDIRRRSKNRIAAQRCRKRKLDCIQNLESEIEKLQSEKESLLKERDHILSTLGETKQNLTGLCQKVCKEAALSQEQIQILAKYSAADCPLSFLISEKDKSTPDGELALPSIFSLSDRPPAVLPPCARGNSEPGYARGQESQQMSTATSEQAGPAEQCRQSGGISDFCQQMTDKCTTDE

[2] = compound: C=CC(=O)N1CCC[C@@H](n2nc(-c3ccc(Oc4ccccc4)cc3)c3c(N)ncnc32)C1 [ibrutinib]
Procedure, shortened: as §1

[3] = compound: CC(=O)c1cnc2ccc(-c3cc(Cl)c(O)c(Cl)c3)nc2c1N[C@H]1CC[C@H](CN(C)C)CC1
Procedure, shortened: as §1

[4] = compound: CC(C)(C)Cn1c(N)nc2ccc(-c3[nH]c(C(C)(C)C)nc3-c3ccc(F)cc3)nc21 [ralimetinib]
Procedure, shortened: as §1

[5] = compound: CC(C)(O)CC(=O)NCCn1ccc2ncnc(Nc3ccc(Oc4cccc(C(F)(F)F)c4)c(Cl)c3)c21
Procedure, shortened: as §1

[6] = compound: CC(C)C1=C2N=C(C=C(N2N=C1)NCC3=CC=CC=C3)NCCCCCCN
Procedure, shortened: as §1

[7] = compound: CC(C)C[C@@H](C=O)NC(=O)[C@H](CC(C)C)NC(=O)[C@H](CC(C)C)NC(=O)OCc1ccccc1
Procedure, shortened: as §1

[8] = compound: CC(C)N(C[C@H]1O[C@@H](n2cnc3c(N)ncnc32)[C@H](O)[C@@H]1O)[C@H]1C[C@@H](CCc2nc3cc(C(C)(C)C)ccc3[nH]2)C1 [pinometostat]
Procedure, shortened: as §1

[9] = compound: CC1=C(C(CC(=O)N1)C2=CC=C(C=C2)C(F)(F)F)C(=O)NC3=C(C=C4C(=C3)C=NN4)F
Procedure, shortened: as §1

[10] = compound: CC1=C(C2=C(C=C1)C(=O)C3=CC=CC=C3N2CCCN)C
Procedure, shortened: as §1

Measured: log2 fold change

BCS1L (UniProt Q9Y276)
inactive: [1] 0.048 | [2] 0.03 | [3] 0.008 | [4] -0.052 | [5] -0.001 | [6] 0.026 | [7] 0.001 | [8] 0.016 | [9] -0.017 | [10] -0.018

BORCS5 (UniProt Q969J3)
inactive: [1] 0.02 | [2] 0.001 | [3] 0.024 | [4] -0.043 | [5] 0.273 | [6] -0.036 | [7] -0.013 | [8] -0.009 | [9] 0.018 | [10] -0.005

BIRC2 (UniProt Q13490)
inactive: [1] 0.018 | [2] -0.004 | [3] -0.071 | [4] -0.051 | [5] 0.017 | [6] -0.014 | [7] -0.009 | [8] 0 | [9] -0.058 | [10] -0.012

BNIP2 (UniProt J3KN59)
inactive: [1] 0.028 | [2] -0.026 | [3] -0.01 | [4] -0.003 | [5] 0.1 | [6] -0.265 | [7] 0.055 | [8] -0.028 | [9] -0.002 | [10] 0.032

BAG1 (UniProt Q99933)
inactive: [1] -0.009 | [2] -0.022 | [3] -0.014 | [4] -0.04 | [5] -0.04 | [6] 0.024 | [7] -0.006 | [8] -0.041 | [9] 0.027 | [10] -0.008

BCAT2 (UniProt O15382)
inactive: [1] 0.005 | [2] 0.013 | [3] -0.03 | [4] -0.056 | [5] -0.015 | [6] 0.039 | [7] -0.019 | [8] -0.005 | [9] 0.042 | [10] -0.028

BBC3 (UniProt Q9BXH1)
inactive: [1] 0.118 | [2] -0.153 | [3] -0.02 | [4] -0.187 | [5] -0.193 | [6] 0.226 | [7] 0.02 | [8] -0.066 | [9] 0.086 | [10] 0.169

B4GAT1 (UniProt O43505)
inactive: [1] 0.015 | [2] 0.15 | [3] 0.078 | [4] -0.012 | [5] -0.018 | [6] -0.12 | [7] -0.001 | [8] 0.018 | [9] -0.008 | [10] 0.016

BCKDK (UniProt O14874)
inactive: [1] 0.013 | [2] 0.023 | [3] 0.03 | [4] 0.041 | [5] 0.023 | [6] 0.113 | [7] 0.036 | [8] -0.043 | [9] 0.036 | [10] 0.094

BICD2 isoform 2 (UniProt Q8TD16)
inactive: [1] -0.008 | [2] 0 | [3] -0.046 | [4] 0.078 | [5] -0.078 | [6] -0.028 | [7] -0.004 | [8] -0.058 | [9] 0.009 | [10] 0.036

BLOC1S4 (UniProt Q9NUP1)
inactive: [1] -0.013 | [2] 0.012 | [3] -0.051 | [4] -0.096 | [5] -0.026 | [6] 0.024 | [7] 0.1 | [8] -0.076 | [9] 0.013 | [10] 0.044

BRAT1 (UniProt Q6PJG6)
inactive: [1] 0.002 | [2] 0.008 | [3] 0.02 | [4] 0.021 | [5] -0.098 | [6] -0.07 | [7] 0.069 | [8] 0.001 | [9] 0 | [10] 0.079

BICD1 (UniProt Q96G01)
inactive: [1] -0.085 | [2] 0.054 | [3] -0.024 | [4] 0.063 | [5] 0.086 | [6] -0.17 | [7] 0.175 | [8] 0.127 | [9] 0.049 | [10] 0.006

ATXN10 (UniProt Q9UBB4)
inactive: [1] 0.03 | [2] -0.023 | [3] -0.01 | [4] -0.04 | [5] -0.031 | [6] -0.016 | [7] -0.042 | [8] -0.032 | [9] 0.026 | [10] 0.031

BET1 (UniProt O15155)
inactive: [1] 0.042 | [2] -0.003 | [3] 0.034 | [4] 0.002 | [5] 0.01 | [6] -0.06 | [7] 0.034 | [8] 0.008 | [9] 0.021 | [10] 0.026

BAG3 (UniProt O95817)
inactive: [1] 0.021 | [2] 0.017 | [3] -0.014 | [4] -0.042 | [5] 0 | [6] 0.013 | [7] 0.056 | [8] -0.01 | [9] 0.006 | [10] -0.037

ATXN2 (UniProt Q99700)
inactive: [1] 0.004 | [2] 0.026 | [3] -0.039 | [4] 0.009 | [5] 0.025 | [6] -0.013 | [7] -0.001 | [8] -0.001 | [9] -0.003 | [10] 0.119

BPNT1 (UniProt O95861)
inactive: [1] 0.023 | [2] 0.044 | [3] 0.024 | [4] -0.033 | [5] -0.011 | [6] 0.051 | [7] -0.013 | [8] -0.025 | [9] -0.021 | [10] -0.054

BMS1 (UniProt Q14692)
inactive: [1] -0.11 | [2] 0.02 | [3] 0.094 | [4] 0.153 | [5] -0.001 | [6] 0.011 | [7] 0.105 | [8] 0.335 | [9] 0 | [10] -0.443

BCL2L1 (UniProt Q07817)
inactive: [1] 0.025 | [2] -0.006 | [3] -0.061 | [4] 0.101 | [5] 0.023 | [6] -0.046 | [7] -0.06 | [8] -0.064 | [9] -0.005 | [10] -0.004

8 neighbouring records out of the list so far, quoted:
BICD2 isoform 2 (UniProt Q8TD16)
inactive: [1] -0.008 | [2] 0 | [3] -0.046 | [4] 0.078 | [5] -0.078 | [6] -0.028 | [7] -0.004 | [8] -0.058 | [9] 0.009 | [10] 0.036

BLOC1S4 (UniProt Q9NUP1)
inactive: [1] -0.013 | [2] 0.012 | [3] -0.051 | [4] -0.096 | [5] -0.026 | [6] 0.024 | [7] 0.1 | [8] -0.076 | [9] 0.013 | [10] 0.044

BRAT1 (UniProt Q6PJG6)
inactive: [1] 0.002 | [2] 0.008 | [3] 0.02 | [4] 0.021 | [5] -0.098 | [6] -0.07 | [7] 0.069 | [8] 0.001 | [9] 0 | [10] 0.079

BICD1 (UniProt Q96G01)
inactive: [1] -0.085 | [2] 0.054 | [3] -0.024 | [4] 0.063 | [5] 0.086 | [6] -0.17 | [7] 0.175 | [8] 0.127 | [9] 0.049 | [10] 0.006

ATXN10 (UniProt Q9UBB4)
inactive: [1] 0.03 | [2] -0.023 | [3] -0.01 | [4] -0.04 | [5] -0.031 | [6] -0.016 | [7] -0.042 | [8] -0.032 | [9] 0.026 | [10] 0.031

BET1 (UniProt O15155)
inactive: [1] 0.042 | [2] -0.003 | [3] 0.034 | [4] 0.002 | [5] 0.01 | [6] -0.06 | [7] 0.034 | [8] 0.008 | [9] 0.021 | [10] 0.026

BAG3 (UniProt O95817)
inactive: [1] 0.021 | [2] 0.017 | [3] -0.014 | [4] -0.042 | [5] 0 | [6] 0.013 | [7] 0.056 | [8] -0.01 | [9] 0.006 | [10] -0.037

ATXN2 (UniProt Q99700)
inactive: [1] 0.004 | [2] 0.026 | [3] -0.039 | [4] 0.009 | [5] 0.025 | [6] -0.013 | [7] -0.001 | [8] -0.001 | [9] -0.003 | [10] 0.119

(next part)

BABAM2 (UniProt Q9NXR7)
inactive: [1] 0.024 | [2] 0.024 | [3] 0.004 | [4] 0.065 | [5] -0.014 | [6] 0.076 | [7] -0.011 | [8] 0.021 | [9] 0.05 | [10] 0.022

BLOC1S5 (UniProt Q8TDH9)
inactive: [1] 0.058 | [2] -0.026 | [3] -0.033 | [4] -0.034 | [5] -0.071 | [6] 0.02 | [7] 0.006 | [8] 0.025 | [9] -0.074 | [10] 0.058

ATXN2L (UniProt Q8WWM7)
inactive: [1] -0.008 | [2] 0.013 | [3] -0.043 | [4] -0.014 | [5] 0.013 | [6] -0.012 | [7] 0.009 | [8] 0.037 | [9] 0.013 | [10] 0.008

BLMH (UniProt Q13867)
inactive: [1] 0.044 | [2] 0.003 | [3] -0.045 | [4] -0.112 | [5] -0.039 | [6] 0.063 | [7] -0.091 | [8] -0.023 | [9] 0.028 | [10] 0.011

AVL9 (UniProt Q8NBF6)
inactive: [1] 0.021 | [2] -0.002 | [3] -0.041 | [4] -0.047 | [5] -0.038 | [6] -0.146 | [7] -0.049 | [8] -0.055 | [9] 0.01 | [10] 0.013

BAHCC1 (UniProt Q9P281)
inactive: [1] -0.075 | [2] -0.149 | [3] -0.134 | [4] -0.328 | [5] 0.095 | [6] -0.001 | [7] 0.126 | [8] -0.001 | [9] 0.034 | [10] 0.08

BRI3BP (UniProt Q8WY22)
inactive: [1] -0.054 | [2] 0.051 | [3] -0.027 | [4] -0.102 | [5] 0.105 | [6] -0.019 | [7] -0.008 | [8] 0.082 | [9] 0.013 | [10] 0.055

BACH1 (UniProt O14867)
inactive: [1] 0.017 | [2] 0.009 | [3] -0.066 | [4] -0.008 | [5] 0.002 | [6] 0.069 | [7] 0.058 | [8] -0.003 | [9] 0.022 | [10] -0.035

B3GAT3 (UniProt O94766)
inactive: [1] 0.006 | [2] 0.016 | [3] 0.002 | [4] -0.053 | [5] -0.066 | [6] 0.041 | [7] 0.002 | [8] 0.029 | [9] 0.011 | [10] 0.061

BLVRA (UniProt P53004)
inactive: [1] 0.06 | [2] -0.017 | [3] -0.057 | [4] -0.044 | [5] -0.09 | [6] -0.031 | [7] -0.012 | [8] -0.004 | [9] -0.008 | [10] 0.038
